Experimental data taken from PMC3637499.

Molecular target: Lnk-CFP (Drosophila)
Test: FRET or BRET; sensitised emission FRET, negative controls with Delta-RFP as acceptor in fixed larval salivary glands; insulin condition not stated; absence of FRET yields values <3%

B1: Delta-RFP (protein, UniProt P10041 19-833)
chain: QVHSSGSFELRLKYFSNDHGRDNEGRCCSGESDGATGKCLGSCKTRFRVCLKHYQATIDTTSQCTYGDVITPILGENSVNLTDAQRFQNKGFTNPIQFPFSFSWPGTFSLIVEAWHDTNNSGNARTNKLLIQRLLVQQVLEVSSEWKTNKSESQYTSLEYDFRVTCDLNYYGSGCAKFCRPRDDSFGHSTCSETGEIICLTGWQGDYCHIPKCAKGCEHGHCDKPNQCVCQLGWKGALCNECVLEPNCIHGTCNKPWTCICNEGWGGLYCNQDLNYCTNHRPCKNGGTCFNTGEGLYTCKCAPGYSGDDCENEIYSCDADVNPCQNGGTCIDEPHTKTGYKCHCANGWSGKMCEEKVLTCSDKPCHQGICRNVRPGLGSKGQGYQCECPIGYSGPNCDLQLDNCSPNPCINGGSCQPSGKCICPAGFSGTRCETNIDDCLGHQCENGGTCIDMVNQYRCQCVPGFHGTHCSSKVDLCLIRPCANGGTCLNLNNDYQCTCRAGFTGKDCSVDIDECSSGPCHNGGTCMNRVNSFECVCANGFRGKQCDEESYDSVTFDAHQYGATTQARADGLTNAQVVLIAVFSVAMPLVAVIAACVVFCMKRKRKRAQEKDDAEARKQNEQNAVATMHHNGSGVGVALASASLGGKTGSNSGLTFDGGNPNIIKNTWDKSVNNICASAAAAAAAAAAADECLMYGGYVASVADNNNANSDFCVAPLQRAKSQKQLNTDPTLMHRGSPAGSSAKGASGGGPGAAEGKRISVLGEGSYCSQRWPSLAAAGVAGACSSQLMAAASVAGSGAGTAQQQRSVVCGTPHM
binding: no binding (tested: FRETeff < 3%)

These are yes or no findings as the source states them, for the method shown. Binding seen in cells or lysates may run through a third protein.
